Laboratory results from the supplement of paper PMC10849652.
The other results are listed elsewhere or left out.

The chains behind the UniProt entries cited, without tags or fusion partners. Where a name states a change or a piece, a line headed by the entry shows the natural chain unless it says otherwise.
UniProt P08579, whole entry, looked up: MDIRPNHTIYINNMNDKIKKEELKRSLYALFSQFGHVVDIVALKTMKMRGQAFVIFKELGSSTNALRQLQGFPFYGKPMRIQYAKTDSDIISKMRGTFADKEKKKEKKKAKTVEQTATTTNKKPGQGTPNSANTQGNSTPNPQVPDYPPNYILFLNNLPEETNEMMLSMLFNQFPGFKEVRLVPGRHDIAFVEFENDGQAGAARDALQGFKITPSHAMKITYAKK
UniProt Q8N5G0: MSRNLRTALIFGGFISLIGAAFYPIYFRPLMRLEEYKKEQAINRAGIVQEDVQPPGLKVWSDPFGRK
UniProt O95149, whole entry, looked up: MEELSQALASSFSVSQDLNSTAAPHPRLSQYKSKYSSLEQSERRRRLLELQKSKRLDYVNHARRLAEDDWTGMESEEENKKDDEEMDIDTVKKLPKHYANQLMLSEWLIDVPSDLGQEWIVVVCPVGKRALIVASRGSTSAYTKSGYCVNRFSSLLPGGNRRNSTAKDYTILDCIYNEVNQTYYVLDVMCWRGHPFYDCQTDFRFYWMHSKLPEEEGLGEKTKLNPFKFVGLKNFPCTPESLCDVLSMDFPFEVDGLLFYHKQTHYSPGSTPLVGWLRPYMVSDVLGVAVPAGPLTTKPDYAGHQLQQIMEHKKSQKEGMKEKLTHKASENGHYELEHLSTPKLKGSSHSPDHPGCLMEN
UniProt Q96SB8: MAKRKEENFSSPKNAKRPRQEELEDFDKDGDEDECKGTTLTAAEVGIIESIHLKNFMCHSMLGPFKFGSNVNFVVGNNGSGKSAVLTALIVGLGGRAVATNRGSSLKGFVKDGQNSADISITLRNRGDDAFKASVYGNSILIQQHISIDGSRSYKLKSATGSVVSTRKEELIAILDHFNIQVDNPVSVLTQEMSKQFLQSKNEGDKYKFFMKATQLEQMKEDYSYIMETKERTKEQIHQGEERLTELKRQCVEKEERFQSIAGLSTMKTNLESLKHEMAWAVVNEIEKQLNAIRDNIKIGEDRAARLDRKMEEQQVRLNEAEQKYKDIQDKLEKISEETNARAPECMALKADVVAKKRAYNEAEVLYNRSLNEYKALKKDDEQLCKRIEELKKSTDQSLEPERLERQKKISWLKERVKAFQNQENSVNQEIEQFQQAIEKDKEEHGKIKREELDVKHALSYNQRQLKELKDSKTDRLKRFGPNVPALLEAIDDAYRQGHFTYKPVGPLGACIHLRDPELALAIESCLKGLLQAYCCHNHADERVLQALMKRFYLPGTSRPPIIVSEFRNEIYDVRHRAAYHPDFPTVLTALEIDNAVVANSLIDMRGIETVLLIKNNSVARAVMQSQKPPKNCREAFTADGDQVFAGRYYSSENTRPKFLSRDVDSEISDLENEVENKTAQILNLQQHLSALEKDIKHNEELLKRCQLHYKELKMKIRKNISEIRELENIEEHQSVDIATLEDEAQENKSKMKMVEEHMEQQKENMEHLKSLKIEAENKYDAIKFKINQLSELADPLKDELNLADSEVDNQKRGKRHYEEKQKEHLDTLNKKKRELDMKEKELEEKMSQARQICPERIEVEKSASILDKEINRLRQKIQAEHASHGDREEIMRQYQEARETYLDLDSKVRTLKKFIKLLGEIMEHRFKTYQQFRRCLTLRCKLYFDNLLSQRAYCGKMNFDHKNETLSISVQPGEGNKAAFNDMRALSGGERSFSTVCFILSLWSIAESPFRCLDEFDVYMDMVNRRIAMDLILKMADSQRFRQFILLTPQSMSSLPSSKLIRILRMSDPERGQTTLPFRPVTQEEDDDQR
UniProt Q9Y5X1: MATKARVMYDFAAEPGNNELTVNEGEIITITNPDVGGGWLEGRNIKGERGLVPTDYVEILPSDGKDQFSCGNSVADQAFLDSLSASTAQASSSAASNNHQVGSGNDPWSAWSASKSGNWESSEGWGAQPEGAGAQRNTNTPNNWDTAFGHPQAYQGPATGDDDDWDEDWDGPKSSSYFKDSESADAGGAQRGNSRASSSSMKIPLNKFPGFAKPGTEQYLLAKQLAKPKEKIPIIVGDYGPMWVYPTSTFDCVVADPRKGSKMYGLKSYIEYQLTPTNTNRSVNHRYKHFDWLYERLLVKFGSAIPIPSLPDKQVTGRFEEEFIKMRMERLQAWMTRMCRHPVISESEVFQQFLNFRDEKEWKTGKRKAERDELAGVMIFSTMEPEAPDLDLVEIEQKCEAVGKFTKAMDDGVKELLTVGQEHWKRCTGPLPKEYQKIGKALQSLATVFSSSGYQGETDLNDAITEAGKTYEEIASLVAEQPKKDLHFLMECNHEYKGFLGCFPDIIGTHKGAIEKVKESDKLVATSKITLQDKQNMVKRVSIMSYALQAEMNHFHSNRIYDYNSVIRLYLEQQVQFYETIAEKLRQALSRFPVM
UniProt P62306, whole entry, looked up: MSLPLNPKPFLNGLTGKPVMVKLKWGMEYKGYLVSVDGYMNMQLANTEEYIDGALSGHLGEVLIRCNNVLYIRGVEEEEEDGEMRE
UniProt O60641: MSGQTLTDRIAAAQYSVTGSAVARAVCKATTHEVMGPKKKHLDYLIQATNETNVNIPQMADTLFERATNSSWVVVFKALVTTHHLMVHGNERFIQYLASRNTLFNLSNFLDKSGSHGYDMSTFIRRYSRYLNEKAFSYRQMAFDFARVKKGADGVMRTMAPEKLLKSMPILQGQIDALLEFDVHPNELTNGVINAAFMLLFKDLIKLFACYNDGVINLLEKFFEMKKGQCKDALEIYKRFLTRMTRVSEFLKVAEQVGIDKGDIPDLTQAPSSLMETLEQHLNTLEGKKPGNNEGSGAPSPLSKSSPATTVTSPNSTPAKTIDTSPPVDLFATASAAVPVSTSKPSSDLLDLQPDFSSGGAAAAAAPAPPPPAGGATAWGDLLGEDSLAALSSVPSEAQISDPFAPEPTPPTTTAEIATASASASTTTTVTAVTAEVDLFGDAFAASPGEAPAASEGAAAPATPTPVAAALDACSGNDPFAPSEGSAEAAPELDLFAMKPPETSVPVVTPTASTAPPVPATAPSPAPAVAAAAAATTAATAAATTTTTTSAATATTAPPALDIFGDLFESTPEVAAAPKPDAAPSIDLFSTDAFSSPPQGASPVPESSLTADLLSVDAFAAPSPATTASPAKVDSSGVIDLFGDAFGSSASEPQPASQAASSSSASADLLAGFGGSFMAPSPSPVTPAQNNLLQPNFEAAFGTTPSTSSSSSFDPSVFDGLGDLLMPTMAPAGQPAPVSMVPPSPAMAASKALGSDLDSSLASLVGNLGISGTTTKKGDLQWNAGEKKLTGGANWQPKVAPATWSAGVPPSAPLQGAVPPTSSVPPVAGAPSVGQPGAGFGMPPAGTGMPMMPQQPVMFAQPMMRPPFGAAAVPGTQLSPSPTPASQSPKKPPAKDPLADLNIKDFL
UniProt Q6GMV2: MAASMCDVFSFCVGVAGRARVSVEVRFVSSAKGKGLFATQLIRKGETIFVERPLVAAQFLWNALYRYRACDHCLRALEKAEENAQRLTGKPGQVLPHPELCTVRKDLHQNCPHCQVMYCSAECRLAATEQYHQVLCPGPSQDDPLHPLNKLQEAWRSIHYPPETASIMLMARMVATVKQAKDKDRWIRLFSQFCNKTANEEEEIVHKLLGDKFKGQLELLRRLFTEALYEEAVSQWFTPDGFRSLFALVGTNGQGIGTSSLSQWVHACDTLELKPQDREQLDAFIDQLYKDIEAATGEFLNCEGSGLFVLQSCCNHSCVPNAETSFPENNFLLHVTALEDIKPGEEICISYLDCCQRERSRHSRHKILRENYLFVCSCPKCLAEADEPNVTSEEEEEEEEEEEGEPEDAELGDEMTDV
UniProt Q92922, whole entry, looked up: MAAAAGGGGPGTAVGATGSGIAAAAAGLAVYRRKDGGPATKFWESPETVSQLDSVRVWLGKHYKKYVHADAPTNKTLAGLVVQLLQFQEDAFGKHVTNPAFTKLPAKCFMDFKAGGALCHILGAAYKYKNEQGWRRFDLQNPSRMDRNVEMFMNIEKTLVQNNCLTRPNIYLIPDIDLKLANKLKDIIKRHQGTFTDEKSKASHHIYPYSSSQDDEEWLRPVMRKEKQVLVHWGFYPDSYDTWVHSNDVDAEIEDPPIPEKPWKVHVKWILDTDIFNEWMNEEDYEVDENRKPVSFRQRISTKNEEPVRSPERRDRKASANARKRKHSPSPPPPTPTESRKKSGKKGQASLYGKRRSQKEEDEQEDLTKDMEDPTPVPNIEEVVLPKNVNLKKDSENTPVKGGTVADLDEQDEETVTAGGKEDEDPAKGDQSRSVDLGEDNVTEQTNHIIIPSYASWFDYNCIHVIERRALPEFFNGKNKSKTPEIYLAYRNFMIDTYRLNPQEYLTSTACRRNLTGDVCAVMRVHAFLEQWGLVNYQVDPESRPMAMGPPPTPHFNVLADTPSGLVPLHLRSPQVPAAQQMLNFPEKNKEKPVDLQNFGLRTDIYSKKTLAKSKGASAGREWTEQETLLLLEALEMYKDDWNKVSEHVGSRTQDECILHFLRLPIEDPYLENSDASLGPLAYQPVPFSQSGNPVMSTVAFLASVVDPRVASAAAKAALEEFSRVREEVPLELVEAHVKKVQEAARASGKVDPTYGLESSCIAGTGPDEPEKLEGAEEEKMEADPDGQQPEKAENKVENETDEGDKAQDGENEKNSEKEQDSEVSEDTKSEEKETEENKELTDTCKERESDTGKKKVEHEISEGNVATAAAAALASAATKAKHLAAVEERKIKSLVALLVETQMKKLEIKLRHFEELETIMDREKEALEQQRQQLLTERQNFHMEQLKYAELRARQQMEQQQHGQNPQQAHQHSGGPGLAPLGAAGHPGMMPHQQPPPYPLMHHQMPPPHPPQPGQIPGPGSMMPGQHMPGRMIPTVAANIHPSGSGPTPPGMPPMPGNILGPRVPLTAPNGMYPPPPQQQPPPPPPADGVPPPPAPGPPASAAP
UniProt Q9NTJ3, whole entry, looked up: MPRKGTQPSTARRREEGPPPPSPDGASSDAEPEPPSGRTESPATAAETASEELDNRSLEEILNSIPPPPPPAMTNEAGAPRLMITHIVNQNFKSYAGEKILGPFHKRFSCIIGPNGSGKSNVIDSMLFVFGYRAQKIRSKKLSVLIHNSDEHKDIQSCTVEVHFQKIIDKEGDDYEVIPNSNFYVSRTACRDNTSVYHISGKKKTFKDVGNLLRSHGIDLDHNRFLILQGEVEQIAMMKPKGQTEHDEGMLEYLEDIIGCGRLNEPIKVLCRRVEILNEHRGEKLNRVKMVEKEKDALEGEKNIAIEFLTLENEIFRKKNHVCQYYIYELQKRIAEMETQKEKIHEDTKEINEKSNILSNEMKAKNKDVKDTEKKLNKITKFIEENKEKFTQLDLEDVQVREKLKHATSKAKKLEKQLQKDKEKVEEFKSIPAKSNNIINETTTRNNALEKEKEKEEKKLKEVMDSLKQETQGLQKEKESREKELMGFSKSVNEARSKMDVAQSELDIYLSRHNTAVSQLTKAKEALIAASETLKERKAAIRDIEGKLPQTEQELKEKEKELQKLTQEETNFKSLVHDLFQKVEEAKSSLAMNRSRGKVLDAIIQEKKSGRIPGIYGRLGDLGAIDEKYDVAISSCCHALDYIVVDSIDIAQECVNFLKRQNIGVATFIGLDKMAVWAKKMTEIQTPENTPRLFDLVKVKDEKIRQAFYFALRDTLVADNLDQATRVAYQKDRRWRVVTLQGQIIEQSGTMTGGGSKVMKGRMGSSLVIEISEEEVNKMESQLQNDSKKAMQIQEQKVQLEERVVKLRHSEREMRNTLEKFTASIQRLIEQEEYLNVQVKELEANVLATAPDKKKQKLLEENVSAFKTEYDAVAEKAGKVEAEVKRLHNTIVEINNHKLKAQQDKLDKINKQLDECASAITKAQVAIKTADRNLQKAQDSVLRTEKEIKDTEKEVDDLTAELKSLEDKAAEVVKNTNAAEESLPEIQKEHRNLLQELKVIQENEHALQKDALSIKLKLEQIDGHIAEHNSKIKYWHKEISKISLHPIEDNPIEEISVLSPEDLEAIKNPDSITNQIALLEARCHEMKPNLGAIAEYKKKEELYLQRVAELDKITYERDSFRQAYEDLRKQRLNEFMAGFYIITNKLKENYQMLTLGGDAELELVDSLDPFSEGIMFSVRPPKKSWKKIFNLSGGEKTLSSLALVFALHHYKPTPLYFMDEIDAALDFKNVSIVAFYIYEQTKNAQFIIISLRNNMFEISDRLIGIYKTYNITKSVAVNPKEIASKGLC
UniProt P04179: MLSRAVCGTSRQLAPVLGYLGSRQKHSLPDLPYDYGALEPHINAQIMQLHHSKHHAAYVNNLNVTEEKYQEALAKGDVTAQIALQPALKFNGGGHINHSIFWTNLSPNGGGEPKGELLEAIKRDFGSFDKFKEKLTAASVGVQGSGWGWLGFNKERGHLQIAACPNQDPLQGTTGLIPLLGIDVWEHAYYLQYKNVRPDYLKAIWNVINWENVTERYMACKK
UniProt P62308, whole entry, looked up: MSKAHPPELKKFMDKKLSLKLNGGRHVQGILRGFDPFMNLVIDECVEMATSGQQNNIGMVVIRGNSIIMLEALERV

What was measured:
Test in all cases: log2 fold change, soluble protein after heating vs DMSO (PISA); higher = thermal stabilisation; K562 cells, 10 uM, 30 min; active = over 0.2 and 3.5 SD of the protein, either way, in both replicates (recomputed)
[1] = compound: C#Cc1cccc(Nc2ncnc3cc(OCCOC)c(OCCOC)cc23)c1 [erlotinib]
Summary of the method: (§1)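 K562 cells at 2×10^6 cells/mL were treated for 30 min with 10 μM compound, and aliquots were heated for 3 min over 48°C-58°C before pooling. Extraction used PBS with 0.5% NP-40 at 4°C, and soluble protein was the supernatant after 21,000xg for 90 min, measured by TMTpro 16plex LC-MS/MS with channel sums equalised. Thermal stability values, relative to control samples and from duplicates, are log2 fold changes.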

[2] = compound: C/C(=N\NC(=O)C1=CC(=CC=C1)S(=O)(=O)N2CCOCC2)/C3=C(C=CC(=C3)Cl)O
Summary of the method: as §1

[3] = compound: C1=CC(=C(C=C1Cl)C2=NC3=NC=CN=C3C(=N2)NC4=CC=NC=C4)F
Summary of the method: as §1

[4] = compound: C1=CC(=CC=C1C2=NC3=C(N2)C=C(C=C3)C(=O)N)OC4=CC=C(C=C4)Cl
Summary of the method: as §1

[5] = compound: C1=CC2=C(C=CC(=C2)/C=C\3/C(=O)NC(=NCC4=CC=CS4)S3)N=C1
Summary of the method: as §1

[6] = compound: C1=CC2=NC=CN=C2C=C1/C=C/3\C(=O)NC(=O)S3
Summary of the method: as §1

[7] = compound: C1=CC=C(C=C1)C2=NC(=C(N2)C3=CC=NC=C3)C4=CC(=C(C=C4)Cl)O
Summary of the method: as §1

[8] = compound: C1=CC=C2C(=C1)C3=NNC4=CC=CC(=C43)C2=O
Summary of the method: as §1

[9] = compound: C1CCN(C1)C(=O)NC2=CC=CC(=C2)NC3=NC=C(C(=N3)NCCC4=CN=CN4)Br
Summary of the method: as §1

[10] = compound: C1CN(CCC1(CC2=CC=C(C=C2)Cl)N)C3=NC=NC4=C3C=CN4
Summary of the method: as §1

Measured: log2 fold change

SMPD4 isoform 4 (UniProt Q9NXE4)
inactive: [1] 0.073 | [2] 0.064 | [3] -0.034 | [4] 0.005 | [5] 0.098 | [6] 0.158 | [7] -0.021 | [8] -0.076 | [9] 0.023 | [10] -0.011

SNRPB2 (UniProt P08579)
inactive: [1] -0.032 | [2] -0.056 | [3] -0.01 | [4] -0.019 | [5] -0.034 | [6] 0.042 | [7] -0.054 | [8] -0.015 | [9] 0.057 | [10] -0.026

SMIM20 isoform 2 (UniProt Q8N5G0)
inactive: [1] -0.039 | [2] -0.111 | [4] 0.054 | [5] -0.088 | [6] 0.088 | [7] 0.023 | [8] -0.051 | [9] -0.016 | [10] -0.06
active: [3] 0.427

SMARCA1 (UniProt P28370)
inactive: [1] 0.028 | [2] 0.037 | [3] -0.015 | [4] -0.094 | [5] 0.141 | [6] 0.021 | [7] -0.08 | [8] -0.018 | [9] 0.111 | [10] 0.006

SMAD2 (UniProt Q15796)
inactive: [1] 0.061 | [2] 0.087 | [3] -0.065 | [4] 0.04 | [5] 0.069 | [6] -0.004 | [7] -0.05 | [8] -0.045 | [9] -0.034 | [10] 0.019

SNUPN (UniProt O95149)
inactive: [1] -0.091 | [2] 0.032 | [3] 0.136 | [4] -0.019 | [5] 0.069 | [6] 0.037 | [7] -0.085 | [8] -0.053 | [9] 0.024 | [10] -0.061

SMC6 isoform 2 (UniProt Q96SB8)
inactive: [1] -0.016 | [2] 0.06 | [3] 0.066 | [4] -0.029 | [5] 0.014 | [6] -0.038 | [7] -0.024 | [8] -0.003 | [9] 0.003 | [10] 0.03

SNX9 (UniProt Q9Y5X1)
inactive: [1] -0.005 | [2] 0.047 | [3] -0.004 | [4] -0.024 | [5] 0.004 | [6] 0.014 | [7] -0.006 | [8] -0.011 | [9] -0.01 | [10] 0.028

SLMAP (UniProt Q14BN4)
inactive: [1] 0.034 | [2] 0.029 | [3] -0.062 | [4] 0.015 | [5] 0.046 | [6] -0.046 | [7] -0.04 | [8] -0.029 | [9] 0.002 | [10] -0.04

SMARCAD1 isoform 2 (UniProt Q9H4L7)
inactive: [1] 0.089 | [2] 0.052 | [3] 0.071 | [4] 0.007 | [5] 0.05 | [6] -0.026 | [7] 0.025 | [8] 0.022 | [9] -0.02 | [10] -0.052

SNRPF (UniProt P62306)
inactive: [1] -0.079 | [2] -0.054 | [3] 0.011 | [4] 0.005 | [5] -0.181 | [6] 0.114 | [7] 0.073 | [8] -0.04 | [9] 0.073 | [10] -0.037

SNAP91 (UniProt O60641)
inactive: [1] 0.047 | [2] -0.003 | [3] 0.083 | [4] -0.022 | [5] 0.01 | [6] -0.023 | [7] 0.032 | [8] 0.019 | [9] 0.008 | [10] 0.031

SNX11 (UniProt Q9Y5W9)
inactive: [1] 0.034 | [2] -0.029 | [3] 0.035 | [4] 0.037 | [5] -0.048 | [6] -0.028 | [7] -0.035 | [8] -0.042 | [9] -0.079 | [10] 0.071

SMAP1 isoform 2 (UniProt Q8IYB5)
inactive: [1] -0.015 | [2] 0.086 | [3] 0.002 | [4] 0.004 | [5] -0.003 | [6] 0.033 | [7] 0.001 | [8] -0.003 | [9] -0.074 | [10] 0.028

SP100 isoform 4 (UniProt P23497)
inactive: [1] 0.011 | [2] 0.044 | [3] 0.037 | [4] 0.022 | [5] -0.071 | [6] 0.063 | [7] 0.033 | [8] -0.05 | [9] -0.001 | [10] 0.035

SOS1 (UniProt Q07889)
inactive: [1] -0.015 | [2] 0.072 | [3] -0.075 | [4] -0.027 | [5] 0.047 | [6] -0.107 | [7] 0.009 | [8] 0.022 | [9] 0.041 | [10] -0.006

SNCA (UniProt P37840)
inactive: [1] 0.009 | [2] 0.024 | [3] 0.023 | [4] 0.007 | [5] 0.027 | [6] 0.019 | [7] 0.025 | [8] -0.014 | [9] -0.01 | [10] 0.086

Quoted from the listing (8 entries):
SMC6 isoform 2 (UniProt Q96SB8)
inactive: [1] -0.016 | [2] 0.06 | [3] 0.066 | [4] -0.029 | [5] 0.014 | [6] -0.038 | [7] -0.024 | [8] -0.003 | [9] 0.003 | [10] 0.03

SNX9 (UniProt Q9Y5X1)
inactive: [1] -0.005 | [2] 0.047 | [3] -0.004 | [4] -0.024 | [5] 0.004 | [6] 0.014 | [7] -0.006 | [8] -0.011 | [9] -0.01 | [10] 0.028

SLMAP (UniProt Q14BN4)
inactive: [1] 0.034 | [2] 0.029 | [3] -0.062 | [4] 0.015 | [5] 0.046 | [6] -0.046 | [7] -0.04 | [8] -0.029 | [9] 0.002 | [10] -0.04

SMARCAD1 isoform 2 (UniProt Q9H4L7)
inactive: [1] 0.089 | [2] 0.052 | [3] 0.071 | [4] 0.007 | [5] 0.05 | [6] -0.026 | [7] 0.025 | [8] 0.022 | [9] -0.02 | [10] -0.052

SNRPF (UniProt P62306)
inactive: [1] -0.079 | [2] -0.054 | [3] 0.011 | [4] 0.005 | [5] -0.181 | [6] 0.114 | [7] 0.073 | [8] -0.04 | [9] 0.073 | [10] -0.037

SNAP91 (UniProt O60641)
inactive: [1] 0.047 | [2] -0.003 | [3] 0.083 | [4] -0.022 | [5] 0.01 | [6] -0.023 | [7] 0.032 | [8] 0.019 | [9] 0.008 | [10] 0.031

SNX11 (UniProt Q9Y5W9)
inactive: [1] 0.034 | [2] -0.029 | [3] 0.035 | [4] 0.037 | [5] -0.048 | [6] -0.028 | [7] -0.035 | [8] -0.042 | [9] -0.079 | [10] 0.071

SMAP1 isoform 2 (UniProt Q8IYB5)
inactive: [1] -0.015 | [2] 0.086 | [3] 0.002 | [4] 0.004 | [5] -0.003 | [6] 0.033 | [7] 0.001 | [8] -0.003 | [9] -0.074 | [10] 0.028

The list continues:

SNRPC (UniProt Q5TAL2)
inactive: [1] 0.108 | [2] -0.47 | [3] 0.127 | [4] -0.25 | [5] 0.028 | [6] 0.027 | [7] 0.093 | [8] 0.148 | [9] -0.041 | [10] 0.123

SP6 (UniProt Q3SY56)
inactive: [1] 0.117 | [2] -0.016 | [3] -0.258 | [4] -0.066 | [5] -0.032 | [6] 0.041 | [7] -0.098 | [8] 0.053 | [9] -0.046 | [10] 0.118

SMYD5 (UniProt Q6GMV2)
inactive: [1] 0 | [2] 0.026 | [3] 0.073 | [4] 0.019 | [5] 0.027 | [6] 0.022 | [7] -0.038 | [8] 0.015 | [9] 0.008 | [10] 0.01

SMG8 isoform 2 (UniProt Q8ND04)
inactive: [1] 0.083 | [2] -0.059 | [3] -0.129 | [4] -0.12 | [5] -0.083 | [6] 0.018 | [7] -0.075 | [8] -0.145 | [9] -0.048 | [10] 0.085

SLK isoform 2 (UniProt Q9H2G2)
inactive: [1] -0.023 | [2] 0.083 | [3] -0.098 | [4] -0.001 | [5] 0.043 | [6] 0.075 | [7] -0.135 | [8] -0.047 | [9] -0.028 | [10] -0.057

SNRPA1 (UniProt P09661)
inactive: [1] -0.055 | [2] -0.052 | [3] -0.041 | [4] 0.004 | [5] -0.056 | [6] 0.054 | [7] 0.035 | [8] -0.016 | [9] 0.029 | [10] -0.005

SMARCC1 (UniProt Q92922)
inactive: [1] 0.067 | [2] 0.04 | [3] -0.06 | [4] 0.088 | [5] 0.092 | [6] 0.025 | [7] 0.05 | [8] -0.051 | [9] -0.153 | [10] -0.168

SMC4 (UniProt Q9NTJ3)
inactive: [1] 0.006 | [2] 0.044 | [3] -0.034 | [4] -0.027 | [5] -0.01 | [6] 0.014 | [7] 0.051 | [8] 0.018 | [9] -0.001 | [10] -0.071

SMAP2 (UniProt Q8WU79)
inactive: [1] -0.044 | [2] 0.13 | [3] -0.005 | [4] -0.032 | [5] -0.029 | [6] 0.019 | [7] -0.015 | [8] 0.017 | [9] -0.086 | [10] 0.038

SOD2 (UniProt P04179)
inactive: [1] 0.024 | [2] -0.025 | [3] 0.026 | [4] -0.033 | [5] -0.088 | [6] 0.018 | [7] 0.045 | [8] 0.013 | [9] 0.04 | [10] 0.058

SNRPG (UniProt P62308)
inactive: [1] 0.022 | [2] -0.009 | [3] -0.067 | [4] 0.018 | [5] 0.003 | [6] 0.031 | [7] -0.079 | [8] -0.027 | [9] -0.004 | [10] -0.019

SMYD3 (UniProt Q9H7B4)
inactive: [1] 0.056 | [2] 0.253 | [3] -0.099 | [4] 0.006 | [5] 0.094 | [6] 0.11 | [7] -0.053 | [8] 0.077 | [9] -0.217 | [10] -0.186
